PfKRS1: 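Lysine-tRNA ligase, Plasmodium falciparum 3D7 (UniProt Q8IDJ8). Enzyme assay of the cytosolic lysyl-tRNA synthetase in 384-well plates, read by luminescence. Concentration: 30 µM. Higher reads as stronger inhibition, judged from the few compounds that gave an IC50. Size under these conditions: about 69,000 compounds, about 49 of them at 50% or above in at least one test.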
TcHisRS: 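Histidine-tRNA ligase, Trypanosoma cruzi CL Brener (UniProt Q4DA54). Enzyme assay of histidyl-tRNA synthetase; the read-out is not stated. Concentration: 30 µM. The record gives no direction; compounds that gave an IC50 in retests scored well above the rest, so higher reads as stronger inhibition. About 69,000 compounds were tested under these conditions; 0.045% (about 31) showed 50% or more at least once.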
Pks13 thioesterase: 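Enzyme assay of the thioesterase domain of polyketide synthase 13; the read-out is not stated. Target: Polyketide synthase Pks13, Mycobacterium tuberculosis (UniProt I6X8D2). Compounds at 30 µM. The record gives no direction; the compounds picked for IC50 retests had high values, so higher reads as stronger inhibition. Size under these conditions: about 67,000 compounds, about 300 of them at 50% or above in at least one test.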

Chains of the proteins cited; added tags and fusions are not shown. Residues count along the entry.
UniProt Q8IDJ8, 1-583: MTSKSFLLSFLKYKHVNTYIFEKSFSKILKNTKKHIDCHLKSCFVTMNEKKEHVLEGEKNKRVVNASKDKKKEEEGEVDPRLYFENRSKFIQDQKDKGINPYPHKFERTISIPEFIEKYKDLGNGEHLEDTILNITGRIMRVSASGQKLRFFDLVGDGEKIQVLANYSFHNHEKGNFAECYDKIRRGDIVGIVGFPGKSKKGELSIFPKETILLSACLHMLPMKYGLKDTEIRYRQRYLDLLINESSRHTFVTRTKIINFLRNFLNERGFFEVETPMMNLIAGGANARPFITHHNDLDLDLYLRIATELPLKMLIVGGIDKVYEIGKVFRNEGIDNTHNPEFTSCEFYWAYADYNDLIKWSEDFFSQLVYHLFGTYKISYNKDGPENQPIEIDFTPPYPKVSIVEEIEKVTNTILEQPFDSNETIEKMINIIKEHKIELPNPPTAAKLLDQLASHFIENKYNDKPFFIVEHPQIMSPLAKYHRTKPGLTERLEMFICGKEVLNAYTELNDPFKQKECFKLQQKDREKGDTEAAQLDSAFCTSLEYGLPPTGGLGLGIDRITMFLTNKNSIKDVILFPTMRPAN
UniProt Q4DA54, 1-478: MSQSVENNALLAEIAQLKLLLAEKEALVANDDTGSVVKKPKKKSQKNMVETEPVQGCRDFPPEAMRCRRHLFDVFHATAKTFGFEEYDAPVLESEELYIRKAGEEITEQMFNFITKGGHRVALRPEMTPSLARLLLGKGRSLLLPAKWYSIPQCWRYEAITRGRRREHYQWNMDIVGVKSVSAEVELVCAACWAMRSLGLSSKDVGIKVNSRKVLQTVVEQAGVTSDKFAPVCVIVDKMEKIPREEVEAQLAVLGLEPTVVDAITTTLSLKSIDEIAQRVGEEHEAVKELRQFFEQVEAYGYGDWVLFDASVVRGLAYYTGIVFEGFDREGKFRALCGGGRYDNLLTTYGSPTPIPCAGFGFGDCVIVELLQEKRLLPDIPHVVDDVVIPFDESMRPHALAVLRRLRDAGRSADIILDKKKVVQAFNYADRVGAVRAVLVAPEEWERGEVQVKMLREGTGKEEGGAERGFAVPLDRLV
UniProt I6X8D2, whole entry: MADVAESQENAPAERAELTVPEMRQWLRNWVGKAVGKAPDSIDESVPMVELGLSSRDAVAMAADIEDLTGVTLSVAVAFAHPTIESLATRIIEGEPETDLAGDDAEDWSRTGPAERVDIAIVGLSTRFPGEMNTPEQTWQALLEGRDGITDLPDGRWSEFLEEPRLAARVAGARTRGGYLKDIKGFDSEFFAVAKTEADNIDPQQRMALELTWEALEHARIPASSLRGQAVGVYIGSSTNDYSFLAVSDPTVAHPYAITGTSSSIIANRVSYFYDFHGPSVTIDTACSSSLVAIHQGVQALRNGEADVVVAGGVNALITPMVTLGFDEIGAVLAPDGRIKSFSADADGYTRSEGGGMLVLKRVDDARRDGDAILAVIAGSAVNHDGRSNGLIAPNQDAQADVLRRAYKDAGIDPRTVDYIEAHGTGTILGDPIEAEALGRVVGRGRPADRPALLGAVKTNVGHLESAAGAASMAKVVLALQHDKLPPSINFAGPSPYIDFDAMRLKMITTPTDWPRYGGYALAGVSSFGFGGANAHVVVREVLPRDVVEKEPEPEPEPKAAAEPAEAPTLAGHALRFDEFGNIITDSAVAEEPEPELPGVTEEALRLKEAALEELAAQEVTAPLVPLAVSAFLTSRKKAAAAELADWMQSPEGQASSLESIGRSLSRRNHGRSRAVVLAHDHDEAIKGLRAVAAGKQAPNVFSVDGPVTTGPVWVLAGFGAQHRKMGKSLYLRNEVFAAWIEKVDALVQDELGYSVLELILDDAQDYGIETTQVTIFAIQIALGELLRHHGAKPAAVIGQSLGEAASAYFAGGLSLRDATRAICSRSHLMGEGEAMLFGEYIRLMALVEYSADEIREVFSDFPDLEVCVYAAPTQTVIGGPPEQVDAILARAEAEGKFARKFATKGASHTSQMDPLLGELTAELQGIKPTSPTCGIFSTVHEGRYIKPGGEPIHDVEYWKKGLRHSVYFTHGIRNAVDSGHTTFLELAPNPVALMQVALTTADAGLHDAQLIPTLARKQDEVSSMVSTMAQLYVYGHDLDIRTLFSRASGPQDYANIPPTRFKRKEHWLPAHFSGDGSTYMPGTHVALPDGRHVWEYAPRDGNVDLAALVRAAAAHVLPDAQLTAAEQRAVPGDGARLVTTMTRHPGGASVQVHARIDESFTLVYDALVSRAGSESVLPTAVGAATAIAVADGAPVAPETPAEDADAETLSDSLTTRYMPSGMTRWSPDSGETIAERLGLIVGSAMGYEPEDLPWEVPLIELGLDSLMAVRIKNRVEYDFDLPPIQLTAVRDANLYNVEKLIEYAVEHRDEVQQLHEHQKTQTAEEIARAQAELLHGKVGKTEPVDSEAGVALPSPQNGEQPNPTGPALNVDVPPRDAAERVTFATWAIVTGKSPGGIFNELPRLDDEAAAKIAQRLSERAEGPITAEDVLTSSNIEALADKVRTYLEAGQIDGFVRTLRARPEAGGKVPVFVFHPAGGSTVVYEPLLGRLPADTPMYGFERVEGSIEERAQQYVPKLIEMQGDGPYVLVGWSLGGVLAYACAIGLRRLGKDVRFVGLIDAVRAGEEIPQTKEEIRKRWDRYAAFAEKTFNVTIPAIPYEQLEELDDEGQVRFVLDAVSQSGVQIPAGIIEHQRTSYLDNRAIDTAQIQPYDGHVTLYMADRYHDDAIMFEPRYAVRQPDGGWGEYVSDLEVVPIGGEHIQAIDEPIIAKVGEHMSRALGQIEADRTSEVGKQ

Each number is a percent effect as filed.
How 0% and 100% were set is not recorded. Most values in the screen are low, and negative values occur.
The compounds are a random part of those screened.
A dash means the value is not listed here; it may have been measured.

SMILES,PfKRS1,TcHisRS,Pks13 thioesterase
O=C(NCCn1ccnc1C1CCOC1)c1cccnc1 (stereo not drawn),2.233,6.383,-27.08
Cc1cc(C)n(CC2CCCN2CC(=O)NC2CCOCC2)n1 (stereo not drawn),5.762,3.817,-6.386
O=C(CO)N1CCCn2nnc(Cn3cccn3)c2C1,-5.202,-2.299,-
Cc1ccc(CN2CC[C@@H](NS(C)(=O)=O)[C@@H]2Cc2ccncc2)o1,1.812,7.362,-9.349
CN(C)CCN1C(=O)CCC12CCCN(C(=O)CC1CC1)CC2 (stereo not drawn),-4.534,0.4808,-46.18
Cc1ccc(N2CCCc3sc(C(=O)NCC4CCCO4)nc32)nn1 (stereo not drawn),-0.5425,3.81,-11.97
FC(F)(F)CCc1ccnc(NCc2csc(N3CCOCC3)n2)n1,8.851,19.79,-10.22
Cc1cc(F)ccc1CN1CCCC(O)(CN2CCCC2)C1 (stereo not drawn),-0.9799,13.79,-32.76
Cc1c(C(C)NC2CSCCSC2)cnn1-c1ccc(F)cc1F (stereo not drawn),-2.923,1.676,-30.81
O=C(NCCn1nc2ccccn2c1=O)c1cc[nH]n1,2.729,-2.5,-2.936
CS(=O)(=O)CCn1ccc(NC(=O)Cc2c[nH]c3ccccc23)n1,6.966,6.736,-1.464
c1csc(-c2nnc(CSCCN3CCOCC3)o2)c1,3.409,7.389,-27.53
Cc1cc(-c2ccc(=O)n(C3CCN(S(=O)(=O)N(C)C)CC3)n2)c(C)o1,3.269,10.77,7.604
COCCCN1C(=O)c2ccc(C(=O)NCCc3c[nH]cn3)cc2C1=O,2.15,-1.205,-51.46
O=C(c1ccc[nH]1)N1CC2(CCN(c3nccs3)C2)C1,3.483,9.091,-30.13
CCCc1noc(CN2CCC(C(=O)Nc3cnn(CC)c3)CC2)n1,-0.3857,-0.2865,-2.11
Cc1cccc(CN2C[C@H]3OC(=O)N(CCCN4CCOCC4)[C@H]3C2)n1,0.8454,2.905,-7.551
CCOCC(=O)NCCCn1ccnc1-c1ccccc1,2.254,12,-5.721
Cn1cnc(S(=O)(=O)NCC2(O)CCc3ccccc3C2)c1 (stereo not drawn),3.436,4.444,-
COc1cccc(-c2n[nH]cc2C(=O)NC(C)c2n[nH]c(C)n2)c1 (stereo not drawn),-3.215,-6.667,-34.28
Cc1ncsc1C(=O)NCCSCCCO,3.388,-2.682,-15.76
CCCS(=O)(=O)N1CCC2(CC1)CC(=O)N(CCCc1ccccc1)C2,1.042,15.66,27.76
COc1cc(NC(=O)NCc2cc(C)oc2C)cc(OC)c1,0.2061,2.222,-41.55
CC(Cc1cccc(F)c1)C(=O)NS(=O)(=O)c1ccc2c(c1)OCCO2 (stereo not drawn),-1.778,-1.235,-7.426
CN1CCCN(C[C@@H]2CN(C(=O)N3CCOCC3)C[C@@H]2CO)CC1,4.356,5.83,-7.947
Cn1cc(S(=O)(=O)N2CCCC(Cn3cncn3)C2)cn1 (stereo not drawn),4.305,4.211,-14.99
N#Cc1ccc(CNC(=O)NCCNC(=O)C2CCCC2)c(F)c1,-1.031,-4.046,7.407
CCc1nnc(Nc2cccc(C3CCN(CC4CC4)CC3)n2)s1,2.259,3.745,-10.68
O=C(Cn1cc(-c2ccccc2)ncc1=O)Nc1nccs1,5.279,4.848,-4.647
Cn1cc(CC2CC(=O)N(Cc3ccc(OC(F)F)cc3)C2=O)cn1 (stereo not drawn),4.68,4.867,-11.81
CCOc1ccc(NC(=O)N2CCNC(=O)C2)c(C(F)(F)F)c1,7.866,1.327,-15.2
Cc1nn(C)cc1CN1CCN(CC2(c3ccccc3)CC2)CC1,2.448,4.545,15.41
CN(Cc1nc2ccccc2n1C)CC1CCCN1c1cccnn1 (stereo not drawn),2.864,17.65,-36.96
CCc1ncc(C(=O)N(CCOC)Cc2nccs2)cn1,5.257,1.571,-4.461
Cc1cc(C)n(CC2CN(Cc3nc(-c4ccco4)no3)CCO2)n1 (stereo not drawn),7.453,4.943,-0.8782
CCOc1cccc(COC(=O)c2scnc2C)n1,-1.739,9.211,11.27
Cc1ccc(-c2nnc(SCC(=O)O)n2-c2ccccc2)cc1,0.1141,0.7491,-12.85
CC(C)OCCS(=O)(=O)c1ccccc1C#N,2.421,1.961,4.804
CC(NC(=O)c1cnccn1)c1nnc2ccccn12 (stereo not drawn),4.277,7.937,-
O=C(c1ccccc1F)N1C[C@H]2CCC[C@@]2(COCc2ccncc2)C1,1.75,5.376,-29
Cc1noc([C@@H]2C[C@H]3OCC[C@H]3N(Cc3ccoc3)C2)n1,-1.974,2.956,-6.677
Cc1noc(Cl)c1CCC(=O)N1CCN(CC(C)(C)O)CC1,-1.733,-0.578,-10.88
COCCS(=O)(=O)Cc1csc(NC(C)=O)n1,3.516,0.9901,-13.38
c1c(CN2CCCCC2)nc2n1CCN(CC1CC1)C2,3.739,2.174,-1.297
N#Cc1ccccc1C(=O)N1C[C@@H](CN2CCOCC2)[C@@H](CO)C1,3.763,-1.508,-1.912
N#Cc1cccnc1OC1CCN(S(=O)(=O)c2ccc(F)c(Cl)c2)CC1,-0.4684,-4.327,4.669
C[C@@H]1CN(C(=O)C2CCS(=O)(=O)CC2)C[C@]1(C)O,9.374,7.772,-27.14
CN(CC1CCOCC1)C(C(=O)O)c1cccc(F)c1F (stereo not drawn),5.923,7.2,-3.666
CN(Cc1c(F)cccc1Cl)C(=O)c1cnn(CCN2CCCCC2)c1,-0.8241,3.614,0.3406
CC(C)c1nnc(N2C[C@@H](CN(C)CCO)[C@@H](CO)C2)s1,-1.7,-1.299,25.75
Cn1c(CN2CCOCC2)nnc1C1CCCN(C(=O)CCC2CC2)C1 (stereo not drawn),4.466,6.122,4.419
CCC1(C)Cc2ccccc2-c2nc(NCCO)nc(O)c21 (stereo not drawn),4.44,8.537,55.81
Cc1cc(SCC(=O)O)nc2nn(CC(F)F)c(C)c12,3.753,15.03,44.59
COC(=O)c1ccc(N2CCN(C(=O)c3ccn(C)c(=O)c3)CC2)cc1,0.3852,-2.793,-24.01
CCCS(=O)(=O)N[C@H]1CN(c2ncccc2C(N)=O)C[C@@H]1C(C)C,1.08,5.419,2.745
Cc1cc(-n2nnc(C(=O)O)c2-c2ccncc2)ccc1F,4.367,1.22,2.655
Cc1cnc(NC(=O)NCCOc2ncccc2Cl)s1,1.155,2.128,-42.7
Cc1n[nH]c(C)c1NC(=O)CN1CCN(c2nccs2)C(C)C1 (stereo not drawn),2.526,1.744,-9.48

Some entries from above, unchanged:

{"smiles": "O=C(c1ccccc1F)N1C[C@H]2CCC[C@@]2(COCc2ccncc2)C1", "PfKRS1": 1.75, "TcHisRS": 5.376, "Pks13 thioesterase": -29}
{"smiles": "COc1cccc(-c2n[nH]cc2C(=O)NC(C)c2n[nH]c(C)n2)c1", "stereo": "stereo not drawn", "PfKRS1": -3.215, "TcHisRS": -6.667, "Pks13 thioesterase": -34.28}
{"smiles": "CC(C)c1nnc(N2C[C@@H](CN(C)CCO)[C@@H](CO)C2)s1", "PfKRS1": -1.7, "TcHisRS": -1.299, "Pks13 thioesterase": 25.75}
{"smiles": "N#Cc1cccnc1OC1CCN(S(=O)(=O)c2ccc(F)c(Cl)c2)CC1", "PfKRS1": -0.4684, "TcHisRS": -4.327, "Pks13 thioesterase": 4.669}
{"smiles": "CS(=O)(=O)CCn1ccc(NC(=O)Cc2c[nH]c3ccccc23)n1", "PfKRS1": 6.966, "TcHisRS": 6.736, "Pks13 thioesterase": -1.464}
{"smiles": "Cc1nn(C)cc1CN1CCN(CC2(c3ccccc3)CC2)CC1", "PfKRS1": 2.448, "TcHisRS": 4.545, "Pks13 thioesterase": 15.41}

From ChEMBL document CHEMBL3988442, “University of Dundee, Small-Polar-MMV Screening Library” (2021).